What was measured:
α-glucosidase (Yeast) [1] = test: Isothermal titration calorimetry; format: binding; settings: ITC, 25 °C
α-glucosidase (Yeast) [2] = test: Fluorescence quenching (Stern–Volmer) and thermodynamic parameters; format: binding; settings: for fluorescence burst (quenching) mechanism: Stern–Volmer plots; for ΔH: from Kb at 298, 303, 310 K
Procedure: An equal volume of polyphenol solution (0.02 mg/mL) was added to 3 mL of α-glucosidase solution (0.05 mg/mL) in 9 separate additions of 10 μL each. The mixture was shaken and then placed in a warm bath at 37 °C for 15 min. The system was scanned for fluorescence at three temperatures (298 K, 303 K, 310 K) using an F-7000 fluorescence spectrometer (Hitachi, Tokyo, Japan) at an excitation wavelength of 280 nm and excitation and emission slits of 5 nm. The fluorescence was scanned in the range of 310–500 nm and the corresponding blank control fluorescence spectra were subtracted to calculate the fluorescence. The Stern–Volmer equation was used to calculate the fluorescence burst constants and determine the type of burst.
Therefore, the spontaneity and binding force of their interactions can be studied by calculating thermodynamic parameters. The values of the free energy change (ΔG), enthalpy change (ΔH) and entropy change (ΔS) can be calculated by Equations (5) and (6). (5) ΔG=[…]=ΔH−TΔS (6) lnKb2/Kb1=[…]ΔH×1/R where R = 8.314 J/(mol·K).

| Structure (SMILES) | binding process (heat) (α-glucosidase (Yeast) [1]) | n (binding stoichiometry) (α-glucosidase (Yeast) [1]) | ΔH (α-glucosidase (Yeast) [1]) [kcal/mol] | ΔS (α-glucosidase (Yeast) [1]) [cal/mol/K] | n (binding sites) (α-glucosidase (Yeast) [2]; 298 K) | ΔG (α-glucosidase (Yeast) [2]; 298 K) [kcal/mol] | ΔS (α-glucosidase (Yeast) [2]; 298 K) [J mol^−1 K^−1] | n (binding sites) (α-glucosidase (Yeast) [2]; 303 K) | ΔG (α-glucosidase (Yeast) [2]; 303 K) [kcal/mol] | ΔS (α-glucosidase (Yeast) [2]; 303 K) [J mol^−1 K^−1] | n (binding sites) (α-glucosidase (Yeast) [2]; 310 K) | ΔG (α-glucosidase (Yeast) [2]; 310 K) [kcal/mol] | ΔS (α-glucosidase (Yeast) [2]; 310 K) [J mol^−1 K^−1] | fluorescence burst (quenching) mechanism (α-glucosidase (Yeast) [2]) | ΔH (α-glucosidase (Yeast) [2]) [kcal/mol] | ΔS (α-glucosidase (Yeast) [1]; listed as RU) [cal/mol/K] |
| --- | --- | --- | --- | --- | --- | --- | --- | --- | --- | --- | --- | --- | --- | --- | --- | --- |
| O=c1c(O[C@@H]2O[C@H](CO)[C@H](O)[C@H](O)[C@H]2O)c(-c2ccc(O)c(O)c2)oc2cc(O)cc(O)c12 [Hyperoside, hyperoside] | heat-absorbing | 0.5 | 1.3e+06 ± 510600 | 4380 | 1.91 | -1.79 | 1.41 | 1.57 | -1.29 | 5.48 | 1.80 | -1.68 | 0.09 | static bursts | 1.93 | – |
| O=c1c(O)c(-c2ccc(O)cc2)oc2cc(O)cc(O)c12 [Kaempferol, kaempferol] | exothermic | 1.05 | – | 97.5 | 1.67 | -16.57 | 208.92 | 1.83 | -16.4 | 203.15 | 1.86 | -16.55 | 200.53 | static bursts | -4.419 | – |
| O=c1c(O)c(-c2ccc(O)c(O)c2)oc2cc(O)cc(O)c12 [Quercetin, quercetin] | exothermic | 2.04 | – | 129 | 2.30 | -1.07 | 8.75 | 2.35 | -1.11 | 8.01 | 2.34 | -1.18 | 6.87 | static bursts | -1.28 | – |
| C[C@@H]1O[C@@H](Oc2c(-c3ccc(O)c(O)c3)oc3cc(O)cc(O)c3c2=O)[C@H](O)[C@H](O)[C@H]1O [Quercitrin, quercitrin] | exothermic | 2.36 | – | 487 | 1.72 | -14.63 | 181.73 | 1.71 | -14.27 | 176.69 | 1.71 | -14.27 | 176.58 | static bursts | -9.632 | – |
| C[C@@H]1O[C@@H](OC[C@H]2O[C@@H](Oc3c(-c4ccc(O)c(O)c4)oc4cc(O)cc(O)c4c3=O)[C@H](O)[C@@H](O)[C@@H]2O)[C@H](O)[C@H](O)[C@H]1O [Rutin] | heat-absorbing | – | – | – | 1.72 | -0.571 | 31.72 | 1.71 | -0.315 | 27.70 | 1.71 | -0.318 | 27.08 | static bursts | 6.807 | 430 |
